According to patent US9795694B2, “Imaging beta-amyloid peptides aggregation” (Hong Kong Baptist University, priority 2014, dated 2017):
Some entries share one result that the patent states for a list of compounds.

Test system: SH-SY5Y neuronal cell
Experiment: MTT reduction assay, cytotoxicity
Conditions: particularly at low dosage
Description: Human neuroblastoma SH-SY5Y neuronal cells were incubated with different concentrations of SLCOOH-conjugated SiO2@Fe3O4 nanoparticles at 37° C. for 24 h.

## COCCOCCn1c2ccccc2c2cc(/C=C/c3c4ccccc4[n+](CCO)c4ccccc34)ccc21.[I-] [SAOH, (E)-10-(2-hydroxyethyl)-9-(2-(9-(2-(2-methoxyethoxy)ethyl)-9H-carbazol-3-yl)vinyl)-acridinium iodide]
  cytotoxicity to the neuronal cell: ≤ 20%
